Consider 42 sequences from paper PMC7819943, “Rice protein-binding microarrays: a tool to detect cis-acting elements near promoter regions in rice”.

Amino acid sequences for entries named in this document (tags omitted).
UniProt Q0JBA9, entry or part of it: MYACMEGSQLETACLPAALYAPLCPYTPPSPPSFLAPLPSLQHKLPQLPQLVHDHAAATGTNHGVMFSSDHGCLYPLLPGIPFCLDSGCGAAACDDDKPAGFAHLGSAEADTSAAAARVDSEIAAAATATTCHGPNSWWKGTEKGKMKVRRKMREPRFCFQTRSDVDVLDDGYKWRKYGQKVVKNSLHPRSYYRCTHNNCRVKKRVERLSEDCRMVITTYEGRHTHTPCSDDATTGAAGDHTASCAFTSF

Some of the results follow.

This assay concerns the target OsWRKY34 (Oryza sativa, UniProt Q0JBA9 1-250). Description: protein-binding microarray (RPBM); PBS, 2% BSA, 51.3 ng/ul salmon testes DNA, 50 uM zinc acetate, 200 nM TF, 25 C, 1 h; high values mean tight binding. The following applies: protein: recombinant; tags: N-terminal polyhistidine and DsRed monomer fusion (pET32a); label: CyDye5-dUTP incorporated in the synthesized complementary strand; 3' TTTTT single-stranded linker to array surface; dsDNA, one strand shown. Summed up: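 Transcription factors were made in E. coli BL21-CodonPlus as N-terminal fusions to a polyhistidine tag and DsRed, then purified on Ni–NTA. After primer extension with Cy5-dUTP and blocking with 2% BSA, a custom Agilent array was exposed for 1 h at 25 °C to 200 nM protein in PBS, 2% BSA, salmon testes DNA and 50 µM zinc acetate. Washed arrays were scanned on an Axon 4000B, and the binding signal is per-feature fluorescence intensity in arbitrary units.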
As for “CTCATCTAGGTTTGGATAGGTGTTTGACTACTAATTCATACGGAGTCACCTAGTGCAG”, the binding signal was 8800 fluorescence intensity (a.u.).

On to “CTACCCTCGTTGCTCTTATCCACTCGCGCCTCGTACCACCCGGAGTCACCTAGTGCAG”, for which the binding signal was 11400 fluorescence intensity (a.u.).

With “ACACACTCTCTCTCTCTCTCTCTCTCTCTCTCTCTCTCTCCGGAGTCACCTAGTGCAG”, the binding signal was 10800 fluorescence intensity (a.u.).

As for “AGCTAACATTAATACAGGTCTTCGTTTGACCAATGCTGTTCGGAGTCACCTAGTGCAG”, the binding signal was 9850 fluorescence intensity (a.u.).

“TTTTTCGTTTTGTTTTTTTTTTCGTTAATTTGGCTTAACTCGGAGTCACCTAGTGCAG”: the binding signal is 8640 fluorescence intensity (a.u.).

Regarding “TTAGAATGTGGACCCTTTTTATATCACGTGTCGTTTGTCACGGAGTCACCTAGTGCAG”, the binding signal is 11500 fluorescence intensity (a.u.).

With “TTGTGTTGTTCTGTAAAGATTTCTATAGATGCTTTATATTCGGAGTCACCTAGTGCAG”, the binding signal is 8120 fluorescence intensity (a.u.).

For the sequence “CATTCGTCGCCGCCCTCGCATTTTAGCATCGTCGTCTGGCCGGAGTCACCTAGTGCAG”, the binding signal was 8040 fluorescence intensity (a.u.).

With “TTTTTTTTCTGCAACCCTCTGTTGCAATCCTGTTCCCCATCGGAGTCACCTAGTGCAG”, the binding signal is 8420 fluorescence intensity (a.u.).

As for “GCTCTGACACCTCGATTCACCCCGCCTCGCCGCCGGCCACCGGAGTCACCTAGTGCAG”, the binding signal was 8980 fluorescence intensity (a.u.).

Consider “GGCTCATCGTCATTCAGGTCTAGCTTGCTCCCGACCTCCTCGGAGTCACCTAGTGCAG”, for which the binding signal was 9000 fluorescence intensity (a.u.).

On to “ATTTTGCTATATCTCACTCGAAAGATTTTTTCTTATCTCTCGGAGTCACCTAGTGCAG”, for which the binding signal was 8210 fluorescence intensity (a.u.).

Consider “AAACAGATTTGGTATATGTCCGTCTCTTTTATCCTTCTTTCGGAGTCACCTAGTGCAG”, for which the binding signal is 8970 fluorescence intensity (a.u.).

Consider “TTTTTTTCTCAATTCATACCTATTCTTGACTGTCTTTTTTCGGAGTCACCTAGTGCAG”, for which the binding signal was 11400 fluorescence intensity (a.u.).

As for “ACCTCCACAAACTGGACCAATCTGGACGCTGTCCAATTCGCGGAGTCACCTAGTGCAG”, the binding signal is 8730 fluorescence intensity (a.u.).

For “ATCATTTGTGTTGTTTAATTAGGGTCCTATCCGTCAAATACGGAGTCACCTAGTGCAG”, the binding signal was 9080 fluorescence intensity (a.u.).

As to “TGTGTTGGTGATGTCGATGTGTGGGTGGTGGTTTTTTTTTCGGAGTCACCTAGTGCAG”, the binding signal is 13800 fluorescence intensity (a.u.).

In the case of “CTTCTGCGCCATTTTCCAGTGAACCAACTTTGCGAGCGACCGGAGTCACCTAGTGCAG”, the binding signal was 11700 fluorescence intensity (a.u.).

“ATCAACGCTACGTATATGCGCGCCGTGTTACGTATCTCTTCGGAGTCACCTAGTGCAG”: the binding signal is 9040 fluorescence intensity (a.u.).

With “ATACCCTTTGACTAAAACCACCAGTACCCACCAGCTTCAACGGAGTCACCTAGTGCAG”, the binding signal was 9730 fluorescence intensity (a.u.).

As to “GGTTAGGATAGCTCAAGACGGCATAGCTCATGAGTTGACCCGGAGTCACCTAGTGCAG”, the binding signal was 8280 fluorescence intensity (a.u.).

Consider “CCATCCGATCGCCATCATCTCATCATCAGTTCATCACCAACGGAGTCACCTAGTGCAG”, for which the binding signal is 10400 fluorescence intensity (a.u.).

Regarding “AAGAGTTAGATTTGACTTTTTGAATTATTTGCTACTAACTCGGAGTCACCTAGTGCAG”, the binding signal was 9060 fluorescence intensity (a.u.).

For “CACGTTGTCCTCGCGTGCCTGGCTCGGCGGGCCCACCCGCCGGAGTCACCTAGTGCAG”, the binding signal is 10400 fluorescence intensity (a.u.).

On to “ATAGCGACATTATTCTTCCTCTCACCTTGCCCCTTCACACCGGAGTCACCTAGTGCAG”, for which the binding signal is 8730 fluorescence intensity (a.u.).

With “TTACAATTAACACTACTGTCTATGTCTCAATTCATACTATCGGAGTCACCTAGTGCAG”, the binding signal is 9150 fluorescence intensity (a.u.).

Consider “AGCTGCGAGCTGTTTGTTTCTCTGGATTATTGAAGGCATCCGGAGTCACCTAGTGCAG”, for which the binding signal was 8890 fluorescence intensity (a.u.).

Consider “TTTTACGACTCTATTTTATCTTAGAACTCTGTTTTATTTTCGGAGTCACCTAGTGCAG”, for which the binding signal was 9020 fluorescence intensity (a.u.).

For “TTCGGCGGCCAGCCCGCCTCCTCCCCGATGCCTTTGCATCCGGAGTCACCTAGTGCAG”, the binding signal is 8950 fluorescence intensity (a.u.).

“GCCTCCAAAACTCCACCCACCCACCCACACCGTCGCCATGCGGAGTCACCTAGTGCAG”: the binding signal was 9340 fluorescence intensity (a.u.).

With “TAGATGAAAATCTGGGATCCAAACTGGTGTTCATGTATGTCGGAGTCACCTAGTGCAG”, the binding signal is 8700 fluorescence intensity (a.u.).

With “ACACCACACCACCACCACCACCACCCACCCCTCGTATGCACGGAGTCACCTAGTGCAG”, the binding signal was 9660 fluorescence intensity (a.u.).

Regarding “ATTACACTCCTATACTACACTACGGCCCTTTTGTTTAAGCCGGAGTCACCTAGTGCAG”, the binding signal is 8990 fluorescence intensity (a.u.).

Consider “CAACACATATCACATTCTTTCAATAAAACATAGGCCATATCGGAGTCACCTAGTGCAG”, for which the binding signal was 8580 fluorescence intensity (a.u.).

For “AGCGCGTCGCTTTCTTTCTTTCTTTCAGTTTTTTTTTTCCCGGAGTCACCTAGTGCAG”, the binding signal was 10500 fluorescence intensity (a.u.).

For “GTCTCCTCGATTCCGATCCGGCGCCGGCGGCCATGGCCGACGGAGTCACCTAGTGCAG”, the binding signal was 8680 fluorescence intensity (a.u.).

Take “GCTACCTACTCCCACTTTCTGAGAGAATACCTGTTGATAACGGAGTCACCTAGTGCAG”: the binding signal was 8900 fluorescence intensity (a.u.).

Regarding “GCCATCTCGCCTAAATAAAACCGCGCTACCCATCGACCGACGGAGTCACCTAGTGCAG”, the binding signal was 9280 fluorescence intensity (a.u.).

“CTTCAAGGCTCCAGTCCAGCTGCTCGCTCCCACCACCCTTCGGAGTCACCTAGTGCAG”: the binding signal was 8120 fluorescence intensity (a.u.).

Take “TTGTATGGAAATTTTAAGTTATGTTTTGTTAGGTGTGTTTCGGAGTCACCTAGTGCAG”: the binding signal was 8340 fluorescence intensity (a.u.).

Consider “AAATCGTATATCCTACTTATTCTCACACCAAAACACATCCCGGAGTCACCTAGTGCAG”, for which the binding signal is 8410 fluorescence intensity (a.u.).

As for “CTCCTCTTCGAGTCGTCCGCTTCCACTCACGCCGGCTCATCGGAGTCACCTAGTGCAG”, the binding signal was 9820 fluorescence intensity (a.u.).
